Data as given in publication doi:10.1101/2024.04.22.590616.
No constants are given. Whether binding was seen depends on the method and setting. Some binding calls cover weakened binding; strength is not graded here. For some of these results: Tags and fused reporters may be left off the sequences shown.

T1: Shu2 (S. cerevisiae) (UniProt P38957)
T1 sequence: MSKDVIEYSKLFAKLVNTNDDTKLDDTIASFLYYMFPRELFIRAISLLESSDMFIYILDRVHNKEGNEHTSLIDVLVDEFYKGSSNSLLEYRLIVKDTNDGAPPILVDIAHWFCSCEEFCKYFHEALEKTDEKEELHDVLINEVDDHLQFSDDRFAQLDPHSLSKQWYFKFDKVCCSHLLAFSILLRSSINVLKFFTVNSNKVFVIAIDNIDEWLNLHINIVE

T2: Psy3 D136A (S. cerevisiae) (UniProt Q12318)
T2 sequence: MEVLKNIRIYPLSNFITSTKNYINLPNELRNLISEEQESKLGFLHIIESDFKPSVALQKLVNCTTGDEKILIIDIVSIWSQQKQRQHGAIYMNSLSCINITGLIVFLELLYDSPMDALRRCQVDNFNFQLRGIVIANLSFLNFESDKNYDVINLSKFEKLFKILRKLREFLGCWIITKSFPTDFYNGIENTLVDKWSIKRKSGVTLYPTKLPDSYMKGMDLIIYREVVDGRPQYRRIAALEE

T3: Psy3 with a His-MBP tag (S. cerevisiae) (UniProt Q12318)
T3 sequence: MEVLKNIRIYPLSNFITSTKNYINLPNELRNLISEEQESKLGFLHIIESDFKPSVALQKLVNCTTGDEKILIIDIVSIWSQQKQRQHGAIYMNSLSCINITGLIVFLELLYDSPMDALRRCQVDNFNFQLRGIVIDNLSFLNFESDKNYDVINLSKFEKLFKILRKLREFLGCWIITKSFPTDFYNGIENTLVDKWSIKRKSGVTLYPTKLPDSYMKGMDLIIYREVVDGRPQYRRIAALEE

T4: Psy3 K52A (S. cerevisiae) (UniProt Q12318)
T4 sequence: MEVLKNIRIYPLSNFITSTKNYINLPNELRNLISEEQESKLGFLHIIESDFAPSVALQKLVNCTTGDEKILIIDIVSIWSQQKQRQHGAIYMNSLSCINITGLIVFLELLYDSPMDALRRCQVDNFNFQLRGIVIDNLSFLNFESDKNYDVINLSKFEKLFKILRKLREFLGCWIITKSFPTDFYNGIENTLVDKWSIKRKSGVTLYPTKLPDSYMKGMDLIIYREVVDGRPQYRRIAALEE

T5: Psy3 (native, tag-free) (S. cerevisiae) (UniProt Q12318)
T5 sequence: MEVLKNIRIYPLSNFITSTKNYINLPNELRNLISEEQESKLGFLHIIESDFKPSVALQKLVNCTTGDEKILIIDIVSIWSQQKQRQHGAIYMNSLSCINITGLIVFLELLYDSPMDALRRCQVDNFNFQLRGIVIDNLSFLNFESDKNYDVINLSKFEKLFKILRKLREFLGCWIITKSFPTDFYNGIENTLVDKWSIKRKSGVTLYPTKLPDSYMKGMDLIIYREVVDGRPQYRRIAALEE

B1: Shu1 (protein, UniProt P38751 1-150)
chain: MQFEERLQQLVESDWSLDQSSPNVLVIVLGDTARKYVELGGLKEHVTTNTVAGHVASRERVSVVFLGRVKYLYMYLTRMQAQANGPQYSNVLVYGLWDLTATQDGPQQLRLLSLVLRQCLSLPSKVEFYPEPPSSSVPARLLRFWDHIIR
B2: Csm2 (protein, UniProt P40465 1-213)
chain: MEYEDLELITIWPSPTKNKLCQFIKQNLSKEHVVTQLFFIDATSSFPLSQFQKLVPPTLPENVRIYENIRINTCLDLEELSAITVKLLQILSMNKINAQRGTEDAVTEPLKIILYINGLEVMFRNSQFKSSPQRSHELLRDTLLKLRVMGNDENENASIRTLLEFPKEQLLDYYLKKNNNTRTSSVRSKRRRIKNGDSLAEYIWKYYADSLFE
B3: Psy3 (native, tag-free) (protein, UniProt Q12318 1-242)
chain: MEVLKNIRIYPLSNFITSTKNYINLPNELRNLISEEQESKLGFLHIIESDFKPSVALQKLVNCTTGDEKILIIDIVSIWSQQKQRQHGAIYMNSLSCINITGLIVFLELLYDSPMDALRRCQVDNFNFQLRGIVIDNLSFLNFESDKNYDVINLSKFEKLFKILRKLREFLGCWIITKSFPTDFYNGIENTLVDKWSIKRKSGVTLYPTKLPDSYMKGMDLIIYREVVDGRPQYRRIAALEE
B4: Csm2 K189A/R190A/R191A/R192A (protein, UniProt P40465 1-213)
chain: MEYEDLELITIWPSPTKNKLCQFIKQNLSKEHVVTQLFFIDATSSFPLSQFQKLVPPTLPENVRIYENIRINTCLDLEELSAITVKLLQILSMNKINAQRGTEDAVTEPLKIILYINGLEVMFRNSQFKSSPQRSHELLRDTLLKLRVMGNDENENASIRTLLEFPKEQLLDYYLKKNNNTRTSSVRSAAAAIKNGDSLAEYIWKYYADSLFE
B5: Psy3 K52A (protein, UniProt Q12318 1-242)
chain: MEVLKNIRIYPLSNFITSTKNYINLPNELRNLISEEQESKLGFLHIIESDFAPSVALQKLVNCTTGDEKILIIDIVSIWSQQKQRQHGAIYMNSLSCINITGLIVFLELLYDSPMDALRRCQVDNFNFQLRGIVIDNLSFLNFESDKNYDVINLSKFEKLFKILRKLREFLGCWIITKSFPTDFYNGIENTLVDKWSIKRKSGVTLYPTKLPDSYMKGMDLIIYREVVDGRPQYRRIAALEE
B6: Psy3 D136A (protein, UniProt Q12318 1-242)
chain: MEVLKNIRIYPLSNFITSTKNYINLPNELRNLISEEQESKLGFLHIIESDFKPSVALQKLVNCTTGDEKILIIDIVSIWSQQKQRQHGAIYMNSLSCINITGLIVFLELLYDSPMDALRRCQVDNFNFQLRGIVIANLSFLNFESDKNYDVINLSKFEKLFKILRKLREFLGCWIITKSFPTDFYNGIENTLVDKWSIKRKSGVTLYPTKLPDSYMKGMDLIIYREVVDGRPQYRRIAALEE

Columns and labels:
Experiment in all cases: SEC
[1] = molecular target: T1, Shu2 (S. cerevisiae)
[2] = molecular target: T2, Psy3 D136A (S. cerevisiae)
[3] = molecular target: T3, Psy3 with a His-MBP tag (S. cerevisiae)
[4] = molecular target: T4, Psy3 K52A (S. cerevisiae)
[5] = molecular target: T5, Psy3 (native, tag-free) (S. cerevisiae)

Row | Binder | binding [1] | further results
1 | B1 | binds | –
2 | B2 | binds | binding [2]: binds; binding [3]: binds; binding [4]: binds; binding [5]: binds
3 | B3 | binds | –
4 | B4 | binds | –
5 | B5 | binds | –
6 | B6 | binds | –
